Measured values as given in patent US20230250164A1.
Results are given in words; binding and its absence hold for the method and conditions named. Some results given as binding are weak or reduced against the parent protein; the word gives no strength.

Amino acid sequences for entries named in this document (tags omitted). Residues count along the entry.
UniProt Q14116, residues 37-193: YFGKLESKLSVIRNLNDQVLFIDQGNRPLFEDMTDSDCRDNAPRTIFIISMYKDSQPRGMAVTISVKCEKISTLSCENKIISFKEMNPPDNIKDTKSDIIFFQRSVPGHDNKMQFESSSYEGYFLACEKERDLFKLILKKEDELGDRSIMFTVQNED

Target: human interleukin-18 (IL-18), recombinant (human) (UniProt Q14116)
Assay: Luminex screening

B1: Antibody 131B4 (antibody, V domains shown)
VH: EVQVQQSGAELVKPGASVKLSCTASGFKIKDTYIHWLKQRPEQGLEWIGRIDPANGNTIYGSKFQGKATITADTSSNTAYIQLSSLTSGDTAVYFCAGYVWFAYWGQGTLVTVSA
VL: DAVLTQTPLSLPVSLGDQASISCTSSQSLVHSNGNTYLHWYLQKPGQSPKLLIYKVSDRFSGVPDRFSGSGSGTDFTLMITRVEAEDLGVYFCSQSSLVPWTFGGGTKLEVK
  binding: binds
